Results deposited as PubChem BioAssay AID686938 (Drosophila RNAi Screening Center, 2013)

Purpose: 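Looking for CRAC channel components and the factors controlling them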 (primary screen)
System: Drosophila S2R+ cells
Reagent: long dsRNA against Drosophila genes, about 0.25 µg dsRNA per well, roughly 10,000 cells
Time to read-out: 5 days of knock-down before the calcium assay
Challenge: thapsigargin (SERCA pump blocker) to empty calcium stores; entry signal taken 4 min after adding it
Measured: 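Per-well fluo-4 fluorescence in two replicates, unnormalised, measured in resting cells and 4 min after store depletion by the SERCA blocker thapsigargin; ratio of the two present in few wells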
Direction: calcium entry signal: higher = stronger calcium signal after store depletion; resting calcium signal: higher = higher resting calcium signal
Active means: 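Called when the plate z-score of the entry-to-rest ratio, mean of duplicates, falls below −3; wells with low overall dye signal (Fmax z below −2) or more than five off-targets excluded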
Meaning of the calls: active = strongly reduced calcium entry; inactive = no strong reduction
The deposit covers about 23,000 reagents; below is an unselected part of those with a known target gene and a result. In the full data, 75 (0.33%) were called active. 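Raw plate signals without normalisation; calls rest on plate z-scores that were not deposited; ratio present for only 364 wells.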 Reagent sequences are not shown. The record does not give: the dose of the treatment.

CG15333 [DRSC18016] | calcium entry signal, replicate 1 (fluorescence units) = 2.88e7; calcium entry signal, replicate 2 (fluorescence units) = 4.21e7; resting calcium signal, replicate 1 (fluorescence units) = 1.50e7; resting calcium signal, replicate 2 (fluorescence units) = 2.01e7; call = inactive
CG15333 [DRSC18153] | calcium entry signal, replicate 1 (fluorescence units) = 2.57e7; calcium entry signal, replicate 2 (fluorescence units) = 4.00e7; resting calcium signal, replicate 1 (fluorescence units) = 1.32e7; resting calcium signal, replicate 2 (fluorescence units) = 1.88e7; call = inactive
CG4806 [DRSC04491] | calcium entry signal, replicate 1 (fluorescence units) = 3.84e7; calcium entry signal, replicate 2 (fluorescence units) = 2.80e7; resting calcium signal, replicate 1 (fluorescence units) = 2.18e7; resting calcium signal, replicate 2 (fluorescence units) = 1.55e7; call = inactive
CG34384 [DRSC12642] | calcium entry signal, replicate 1 (fluorescence units) = 2.09e7; calcium entry signal, replicate 2 (fluorescence units) = 5.04e7; resting calcium signal, replicate 1 (fluorescence units) = 1.02e7; resting calcium signal, replicate 2 (fluorescence units) = 2.56e7; call = inactive
CG34384 [DRSC12644] | calcium entry signal, replicate 1 (fluorescence units) = 2.12e7; calcium entry signal, replicate 2 (fluorescence units) = 4.15e7; resting calcium signal, replicate 1 (fluorescence units) = 1.08e7; resting calcium signal, replicate 2 (fluorescence units) = 1.69e7; call = inactive
CG34384 [DRSC14855] | calcium entry signal, replicate 1 (fluorescence units) = 3.59e7; calcium entry signal, replicate 2 (fluorescence units) = 2.85e7; resting calcium signal, replicate 1 (fluorescence units) = 1.75e7; resting calcium signal, replicate 2 (fluorescence units) = 1.44e7; call = inactive
CG34384 [DRSC15444] | calcium entry signal, replicate 1 (fluorescence units) = 4.20e7; calcium entry signal, replicate 2 (fluorescence units) = 3.06e7; resting calcium signal, replicate 1 (fluorescence units) = 2.05e7; resting calcium signal, replicate 2 (fluorescence units) = 1.53e7; call = inactive
CG34384 [DRSC16575] | calcium entry signal, replicate 1 (fluorescence units) = 4.38e7; calcium entry signal, replicate 2 (fluorescence units) = 3.04e7; resting calcium signal, replicate 1 (fluorescence units) = 2.19e7; resting calcium signal, replicate 2 (fluorescence units) = 1.46e7; call = inactive
euc (eucalyptus) [DRSC14492] | calcium entry signal, replicate 1 (fluorescence units) = 3.05e7; calcium entry signal, replicate 2 (fluorescence units) = 3.68e7; resting calcium signal, replicate 1 (fluorescence units) = 4.45e7; resting calcium signal, replicate 2 (fluorescence units) = 1.56e7; call = inactive
RYa-R (RYamide receptor) [DRSC16757] | calcium entry signal, replicate 1 (fluorescence units) = 3.30e7; calcium entry signal, replicate 2 (fluorescence units) = 3.28e7; resting calcium signal, replicate 1 (fluorescence units) = 1.54e7; resting calcium signal, replicate 2 (fluorescence units) = 1.48e7; call = inactive
drpr (draper) [DRSC08143] | calcium entry signal, replicate 1 (fluorescence units) = 4.15e7; calcium entry signal, replicate 2 (fluorescence units) = 4.33e7; resting calcium signal, replicate 1 (fluorescence units) = 2.18e7; resting calcium signal, replicate 2 (fluorescence units) = 1.88e7; call = inactive
drpr (draper) [DRSC08525] | calcium entry signal, replicate 1 (fluorescence units) = 3.70e7; calcium entry signal, replicate 2 (fluorescence units) = 4.10e7; resting calcium signal, replicate 1 (fluorescence units) = 1.85e7; resting calcium signal, replicate 2 (fluorescence units) = 1.83e7; call = inactive

Part of the list above, showing only “resting calcium signal, replicate 2 (fluorescence units)”:
CG34384 [DRSC14855] = 1.44e7
CG34384 [DRSC15444] = 1.53e7
